Reference: the supplement of paper PMC10849652
Some of the results follow.

Sequences of proteins named here, by UniProt entry; tags and fusion partners are left off. A change or cut given only in a name is not applied to a line headed by its entry.
UniProt O43826: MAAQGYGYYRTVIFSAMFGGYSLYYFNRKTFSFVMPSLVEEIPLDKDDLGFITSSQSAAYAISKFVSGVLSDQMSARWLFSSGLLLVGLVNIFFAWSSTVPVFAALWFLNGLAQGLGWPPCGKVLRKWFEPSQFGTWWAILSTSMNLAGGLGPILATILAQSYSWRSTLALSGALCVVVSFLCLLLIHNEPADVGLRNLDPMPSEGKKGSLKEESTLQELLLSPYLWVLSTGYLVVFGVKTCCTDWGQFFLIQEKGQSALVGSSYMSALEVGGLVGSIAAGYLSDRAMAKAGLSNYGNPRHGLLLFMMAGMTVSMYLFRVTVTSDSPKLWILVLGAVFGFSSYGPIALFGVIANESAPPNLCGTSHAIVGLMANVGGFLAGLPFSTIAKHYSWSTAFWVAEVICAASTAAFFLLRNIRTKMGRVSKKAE
UniProt Q6KCM7: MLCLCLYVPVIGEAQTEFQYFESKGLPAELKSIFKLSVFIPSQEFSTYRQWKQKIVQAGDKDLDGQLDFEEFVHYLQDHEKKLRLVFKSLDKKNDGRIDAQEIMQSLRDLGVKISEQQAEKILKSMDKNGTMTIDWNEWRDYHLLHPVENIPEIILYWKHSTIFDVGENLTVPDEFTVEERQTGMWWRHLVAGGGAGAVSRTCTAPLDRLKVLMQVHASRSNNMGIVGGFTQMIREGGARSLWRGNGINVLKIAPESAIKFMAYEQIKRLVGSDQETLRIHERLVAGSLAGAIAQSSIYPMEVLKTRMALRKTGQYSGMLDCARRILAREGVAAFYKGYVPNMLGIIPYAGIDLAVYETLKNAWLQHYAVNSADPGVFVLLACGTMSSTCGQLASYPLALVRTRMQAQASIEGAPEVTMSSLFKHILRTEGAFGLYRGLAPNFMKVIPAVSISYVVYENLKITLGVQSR
UniProt Q969S0: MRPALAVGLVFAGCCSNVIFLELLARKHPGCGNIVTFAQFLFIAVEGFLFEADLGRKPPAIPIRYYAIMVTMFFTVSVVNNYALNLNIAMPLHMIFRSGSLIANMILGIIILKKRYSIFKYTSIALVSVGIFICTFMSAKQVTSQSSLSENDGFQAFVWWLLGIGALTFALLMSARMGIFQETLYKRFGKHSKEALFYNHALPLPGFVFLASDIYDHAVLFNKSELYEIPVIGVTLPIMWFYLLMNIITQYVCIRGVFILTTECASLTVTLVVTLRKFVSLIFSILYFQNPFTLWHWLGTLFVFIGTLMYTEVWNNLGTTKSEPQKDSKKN
UniProt Q8N1S5: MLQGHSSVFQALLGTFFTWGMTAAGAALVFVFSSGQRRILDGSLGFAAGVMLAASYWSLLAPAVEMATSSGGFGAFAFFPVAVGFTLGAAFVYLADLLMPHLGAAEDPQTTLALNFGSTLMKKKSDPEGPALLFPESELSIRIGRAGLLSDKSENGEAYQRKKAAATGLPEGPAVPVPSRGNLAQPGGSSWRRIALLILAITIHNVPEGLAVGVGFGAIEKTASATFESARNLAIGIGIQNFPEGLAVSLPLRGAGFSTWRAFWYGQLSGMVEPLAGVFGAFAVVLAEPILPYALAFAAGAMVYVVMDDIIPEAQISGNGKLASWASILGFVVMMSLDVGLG
UniProt O60779: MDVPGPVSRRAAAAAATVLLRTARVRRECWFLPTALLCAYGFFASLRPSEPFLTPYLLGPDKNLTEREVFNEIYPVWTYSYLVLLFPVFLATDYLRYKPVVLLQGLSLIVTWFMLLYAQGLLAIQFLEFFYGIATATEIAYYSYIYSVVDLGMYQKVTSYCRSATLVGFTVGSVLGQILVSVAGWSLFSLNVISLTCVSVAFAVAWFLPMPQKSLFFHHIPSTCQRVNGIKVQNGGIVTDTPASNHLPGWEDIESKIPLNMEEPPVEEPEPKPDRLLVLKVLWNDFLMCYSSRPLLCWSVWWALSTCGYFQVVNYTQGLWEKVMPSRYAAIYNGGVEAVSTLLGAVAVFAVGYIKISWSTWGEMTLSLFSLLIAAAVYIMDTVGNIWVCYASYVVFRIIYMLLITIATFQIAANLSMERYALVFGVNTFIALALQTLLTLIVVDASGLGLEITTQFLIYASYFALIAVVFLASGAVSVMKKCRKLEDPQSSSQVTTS
UniProt P48067: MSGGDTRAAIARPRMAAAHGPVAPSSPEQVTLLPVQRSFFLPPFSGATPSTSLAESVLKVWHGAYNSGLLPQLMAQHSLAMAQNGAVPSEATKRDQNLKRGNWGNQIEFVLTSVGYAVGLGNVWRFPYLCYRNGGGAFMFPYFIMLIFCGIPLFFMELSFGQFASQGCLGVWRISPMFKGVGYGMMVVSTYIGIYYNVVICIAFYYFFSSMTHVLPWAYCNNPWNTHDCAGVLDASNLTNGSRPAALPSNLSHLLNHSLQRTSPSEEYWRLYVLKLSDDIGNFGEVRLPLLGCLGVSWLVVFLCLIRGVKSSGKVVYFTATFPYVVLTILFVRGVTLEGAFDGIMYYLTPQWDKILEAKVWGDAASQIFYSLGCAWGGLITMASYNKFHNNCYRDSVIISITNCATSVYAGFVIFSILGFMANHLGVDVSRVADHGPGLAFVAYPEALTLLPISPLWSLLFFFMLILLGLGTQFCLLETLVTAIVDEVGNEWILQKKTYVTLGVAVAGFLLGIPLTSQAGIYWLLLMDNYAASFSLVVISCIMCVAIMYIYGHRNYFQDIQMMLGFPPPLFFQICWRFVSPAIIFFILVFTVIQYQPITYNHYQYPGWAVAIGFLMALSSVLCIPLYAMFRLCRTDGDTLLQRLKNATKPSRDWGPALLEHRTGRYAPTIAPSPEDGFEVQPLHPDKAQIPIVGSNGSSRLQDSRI
UniProt P14672: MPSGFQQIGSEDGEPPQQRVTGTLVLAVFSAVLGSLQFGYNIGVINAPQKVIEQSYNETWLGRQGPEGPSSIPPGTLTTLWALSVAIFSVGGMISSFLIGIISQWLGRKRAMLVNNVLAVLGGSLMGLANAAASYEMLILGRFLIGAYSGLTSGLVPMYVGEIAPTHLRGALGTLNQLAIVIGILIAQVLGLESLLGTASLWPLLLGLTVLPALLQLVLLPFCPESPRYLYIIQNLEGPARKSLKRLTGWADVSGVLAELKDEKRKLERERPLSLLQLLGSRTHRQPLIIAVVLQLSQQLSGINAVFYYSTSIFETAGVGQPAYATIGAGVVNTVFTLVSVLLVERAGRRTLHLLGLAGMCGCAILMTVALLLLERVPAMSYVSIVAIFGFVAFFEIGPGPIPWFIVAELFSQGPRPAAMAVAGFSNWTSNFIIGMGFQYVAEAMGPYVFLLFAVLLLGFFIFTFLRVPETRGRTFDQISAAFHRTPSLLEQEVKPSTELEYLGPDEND
UniProt P0CK96: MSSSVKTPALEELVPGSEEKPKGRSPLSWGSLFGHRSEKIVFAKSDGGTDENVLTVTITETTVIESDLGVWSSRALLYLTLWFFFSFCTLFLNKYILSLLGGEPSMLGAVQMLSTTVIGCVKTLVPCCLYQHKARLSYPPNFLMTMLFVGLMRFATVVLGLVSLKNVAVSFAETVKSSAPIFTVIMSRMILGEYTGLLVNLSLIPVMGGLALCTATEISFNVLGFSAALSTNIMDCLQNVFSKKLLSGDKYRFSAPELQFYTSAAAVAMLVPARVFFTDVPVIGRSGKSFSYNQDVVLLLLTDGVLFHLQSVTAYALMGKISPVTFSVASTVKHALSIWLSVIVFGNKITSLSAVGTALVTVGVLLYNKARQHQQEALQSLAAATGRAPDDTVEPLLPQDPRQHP
UniProt P55011: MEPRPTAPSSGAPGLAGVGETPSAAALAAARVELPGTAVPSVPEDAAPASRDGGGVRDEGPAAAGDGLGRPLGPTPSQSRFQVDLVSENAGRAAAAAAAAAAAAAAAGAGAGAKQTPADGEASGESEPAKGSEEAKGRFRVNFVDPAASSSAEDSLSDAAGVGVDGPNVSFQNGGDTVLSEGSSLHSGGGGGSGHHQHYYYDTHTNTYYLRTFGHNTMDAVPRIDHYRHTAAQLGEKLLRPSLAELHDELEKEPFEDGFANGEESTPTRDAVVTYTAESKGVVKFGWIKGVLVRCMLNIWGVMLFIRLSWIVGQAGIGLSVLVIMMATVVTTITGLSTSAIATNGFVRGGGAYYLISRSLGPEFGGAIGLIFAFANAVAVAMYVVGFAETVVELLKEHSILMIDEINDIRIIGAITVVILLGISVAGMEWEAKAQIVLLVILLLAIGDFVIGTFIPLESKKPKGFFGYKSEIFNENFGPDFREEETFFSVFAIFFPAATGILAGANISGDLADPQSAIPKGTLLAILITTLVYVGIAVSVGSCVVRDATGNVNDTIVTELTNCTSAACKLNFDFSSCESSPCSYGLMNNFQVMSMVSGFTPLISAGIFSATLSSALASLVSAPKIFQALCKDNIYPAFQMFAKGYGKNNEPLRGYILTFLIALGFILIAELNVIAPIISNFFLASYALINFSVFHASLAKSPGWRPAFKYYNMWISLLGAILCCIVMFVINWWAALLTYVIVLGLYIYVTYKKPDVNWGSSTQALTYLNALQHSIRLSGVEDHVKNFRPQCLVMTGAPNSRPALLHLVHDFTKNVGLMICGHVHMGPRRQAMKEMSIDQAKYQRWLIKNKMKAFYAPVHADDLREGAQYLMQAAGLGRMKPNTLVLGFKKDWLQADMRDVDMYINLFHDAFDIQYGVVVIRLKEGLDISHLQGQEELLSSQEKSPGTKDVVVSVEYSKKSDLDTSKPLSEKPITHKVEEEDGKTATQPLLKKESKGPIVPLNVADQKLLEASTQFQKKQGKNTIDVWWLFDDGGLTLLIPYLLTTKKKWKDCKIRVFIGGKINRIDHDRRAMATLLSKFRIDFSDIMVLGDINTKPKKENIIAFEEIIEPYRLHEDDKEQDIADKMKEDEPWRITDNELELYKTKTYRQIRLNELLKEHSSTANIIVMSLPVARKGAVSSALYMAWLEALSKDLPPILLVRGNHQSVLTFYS
UniProt P49281: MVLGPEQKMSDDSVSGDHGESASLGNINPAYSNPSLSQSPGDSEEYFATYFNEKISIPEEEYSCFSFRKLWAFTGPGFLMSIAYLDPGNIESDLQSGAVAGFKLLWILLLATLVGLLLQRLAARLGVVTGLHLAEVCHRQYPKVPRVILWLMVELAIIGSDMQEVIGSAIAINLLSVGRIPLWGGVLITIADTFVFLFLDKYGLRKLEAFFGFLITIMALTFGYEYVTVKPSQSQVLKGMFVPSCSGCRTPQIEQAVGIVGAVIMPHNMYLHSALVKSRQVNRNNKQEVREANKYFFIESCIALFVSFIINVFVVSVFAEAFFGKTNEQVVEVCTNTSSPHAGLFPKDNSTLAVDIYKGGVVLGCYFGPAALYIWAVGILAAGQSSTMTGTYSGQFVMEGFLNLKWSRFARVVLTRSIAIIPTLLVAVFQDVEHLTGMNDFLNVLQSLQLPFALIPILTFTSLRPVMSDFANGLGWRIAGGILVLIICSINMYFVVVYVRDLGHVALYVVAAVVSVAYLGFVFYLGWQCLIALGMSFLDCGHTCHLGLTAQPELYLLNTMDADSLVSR
UniProt P02730: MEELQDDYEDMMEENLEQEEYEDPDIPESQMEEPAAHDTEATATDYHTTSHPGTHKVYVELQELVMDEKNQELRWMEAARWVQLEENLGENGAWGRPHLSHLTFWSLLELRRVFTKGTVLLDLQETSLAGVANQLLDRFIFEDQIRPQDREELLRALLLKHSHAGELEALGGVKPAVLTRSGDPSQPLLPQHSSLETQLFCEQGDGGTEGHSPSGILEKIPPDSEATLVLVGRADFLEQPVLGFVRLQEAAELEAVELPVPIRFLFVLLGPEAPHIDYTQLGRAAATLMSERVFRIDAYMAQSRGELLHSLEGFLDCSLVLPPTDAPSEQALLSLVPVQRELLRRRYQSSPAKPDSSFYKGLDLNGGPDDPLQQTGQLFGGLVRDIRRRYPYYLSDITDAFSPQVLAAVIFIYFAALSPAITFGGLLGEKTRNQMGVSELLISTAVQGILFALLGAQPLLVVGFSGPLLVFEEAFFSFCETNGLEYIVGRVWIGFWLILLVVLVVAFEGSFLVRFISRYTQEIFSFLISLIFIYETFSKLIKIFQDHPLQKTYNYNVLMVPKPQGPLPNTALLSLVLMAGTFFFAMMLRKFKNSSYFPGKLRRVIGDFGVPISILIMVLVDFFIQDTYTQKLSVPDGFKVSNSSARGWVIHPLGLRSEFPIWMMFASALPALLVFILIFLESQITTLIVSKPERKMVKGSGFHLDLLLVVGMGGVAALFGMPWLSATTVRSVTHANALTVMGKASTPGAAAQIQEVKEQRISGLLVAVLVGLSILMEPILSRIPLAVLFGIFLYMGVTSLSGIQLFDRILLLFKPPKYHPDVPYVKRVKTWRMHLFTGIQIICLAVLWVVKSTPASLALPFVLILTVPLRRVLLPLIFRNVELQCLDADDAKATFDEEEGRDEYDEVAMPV

Legend:
Experiment in all cases: log2 fold change, soluble protein after heating vs DMSO (PISA); higher = thermal stabilisation; K562 cells, 10 uM, 30 min; active = over 0.2 and 3.5 SD of the protein, either way, in both replicates (recomputed)
[1] = compound: NC(=O)Nc1cc(-c2cccc(F)c2)sc1C(=O)N[C@H]1CCCNC1
Procedure, shortened: (§1)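 Aliquots of K562 cells (2×10^6 cells/mL) treated with 10 μM compound for 30 min were heated for 3 min over 48°C-58°C. After pooling and extraction in PBS with 0.5% NP-40 at 4°C, soluble protein from a 21,000xg, 90 min spin was quantified by TMTpro 16plex LC-MS/MS with channel sums equalised. Thermal stability is expressed against control samples, from duplicates, as a log2 fold change.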

[2] = compound: NC(=O)c1cnc(N[C@@H]2CCCC[C@@H]2N)nc1Nc1cccc(-n2nccn2)c1
Procedure, shortened: as §1

entinostat = compound: Nc1ccccc1NC(=O)c1ccc(CNC(=O)OCc2cccnc2)cc1 [entinostat]
Procedure, shortened: as §1

[3] = compound: O=C1NC(=O)C(c2cnc3ccccn23)=C1c1cn2c3c(cc(F)cc13)CN(C(=O)N1CCCCC1)CC2
Procedure, shortened: as §1

[4] = compound: NC1(c2ccc(-c3nc4ccn5c(=O)[nH]nc5c4cc3-c3ccccc3)cc2)CCC1
Procedure, shortened: as §1

[5] = compound: NCC(=O)Nc1ccc(-n2nc(C(F)(F)F)cc2-c2ccc3c(ccc4ccccc43)c2)cc1
Procedure, shortened: as §1

citarinostat = compound: O=C(CCCCCCNC(=O)c1cnc(N(c2ccccc2)c2ccccc2Cl)nc1)NO [citarinostat]
Procedure, shortened: as §1

silmitasertib = compound: O=C(O)c1ccc2c(c1)nc(Nc1cccc(Cl)c1)c1ccncc12 [silmitasertib]
Procedure, shortened: as §1

[6] = compound: c1cc(OCCN2CCCCC2)cc(-c2n[nH]c3ccc(-c4nnc[nH]4)cc23)c1
Procedure, shortened: as §1

vorinostat = compound: O=C(CCCCCCC(=O)Nc1ccccc1)NO [vorinostat]
Procedure, shortened: as §1

entospletinib = compound: c1cn2cc(-c3ccc4cn[nH]c4c3)nc(Nc3ccc(N4CCOCC4)cc3)c2n1 [entospletinib]
Procedure, shortened: as §1

Measured: log2 fold change

SLC35E3 (UniProt Q7Z769)
inactive: [1] -0.184 | [2] 0.027 | entinostat 0.153 | [3] 0.011

SLC38A2 (UniProt Q96QD8)
inactive: [1] -0.023 | [2] -0.046 | [4] -0.037 | [5] -0.12 | entinostat 0.018 | citarinostat 0.025 | silmitasertib 0.054 | [3] 0.014 | [6] -0.088

SLC37A4 isoform 2 (UniProt O43826)
inactive: [1] 0.017 | [2] 0.022 | [4] 0.006 | [5] -0.02 | entinostat -0.007 | vorinostat -0.002 | citarinostat 0.013 | silmitasertib 0.044 | [3] 0.009 | [6] -0.001 | entospletinib -0.039

SLC25A31 (UniProt Q9H0C2)
inactive: [1] 0.041 | [2] 0.036 | [4] -0.013 | [5] 0.026 | entinostat 0.018 | vorinostat -0.01 | citarinostat 0.049 | silmitasertib -0.019 | [3] 0.022 | [6] -0.015 | entospletinib -0.015

SLC25A25 isoform 3 (UniProt Q6KCM7)
inactive: [1] -0.013 | [2] 0.003 | [4] -0.029 | [5] 0.032 | entinostat 0.001 | vorinostat -0.017 | citarinostat 0.008 | silmitasertib -0.029 | [3] -0.01 | [6] -0.014 | entospletinib -0.012

SLC2A13 (UniProt Q96QE2)
inactive: [1] 0.007 | [2] 0.131 | [5] 0.038 | entinostat 0.114 | vorinostat -0.156 | citarinostat 0.078 | [3] -0.039 | [6] 0.042 | entospletinib -0.118

SLC35B4 (UniProt Q969S0)
inactive: [1] -0.006 | [2] -0.052 | [4] -0.094 | [5] -0.072 | entinostat -0.002 | citarinostat -0.009 | silmitasertib -0.034 | [3] -0.069 | [6] -0.06

SLC25A24 (UniProt Q6NUK1)
inactive: [1] -0.013 | [2] 0.021 | [4] -0.01 | [5] -0.014 | entinostat -0.039 | vorinostat -0.036 | citarinostat 0.005 | silmitasertib 0.01 | [3] -0.056 | [6] 0.007 | entospletinib 0.024

SLC25A44 (UniProt Q96H78)
inactive: [1] 0.007 | [2] -0.031 | [4] -0.062 | [5] 0.011 | entinostat -0.015 | vorinostat -0.034 | citarinostat 0 | silmitasertib 0.19 | [3] -0.026 | [6] -0.05 | entospletinib -0.08

SLC25A1 (UniProt P53007)
inactive: [1] -0.006 | [2] 0.044 | [4] 0.003 | [5] 0.051 | entinostat 0.001 | vorinostat -0.033 | citarinostat 0.032 | silmitasertib -0.002 | [3] 0.003 | [6] -0.021 | entospletinib -0.016

SLC25A40 (UniProt Q8TBP6)
inactive: [1] -0.023 | [2] -0.001 | [4] 0 | [5] 0 | entinostat -0.022 | vorinostat 0.04 | citarinostat 0.033 | silmitasertib -0.057 | [3] -0.063 | [6] 0.003 | entospletinib 0.012

SLC39A11 (UniProt Q8N1S5)
active: entospletinib -0.458
inactive: [1] 0 | [2] -0.027 | [4] -0.085 | [5] 0.024 | entinostat -0.016 | vorinostat -0.063 | citarinostat -0.059 | silmitasertib 0.078 | [6] -0.122

SLC4A7 isoform 7 (UniProt Q9Y6M7)
inactive: [1] 0.026 | [2] 0.052 | [4] 0.213 | [5] 0.115 | entinostat -0.011 | citarinostat -0.033 | silmitasertib -0.026 | [3] 0.026 | [6] -0.024 | entospletinib 0.038

SLC35B3 (UniProt Q9H1N7)
inactive: [1] 0.005 | [2] -0.043 | [4] 0.134 | [5] 0.006 | entinostat -0.024 | citarinostat 0 | silmitasertib 0.174 | [3] -0.049 | [6] -0.046 | entospletinib 0.073

SLC26A6 (UniProt Q9BXS9)
inactive: [1] 0.015 | [2] 0.007 | [4] 0.062 | [5] -0.008 | entinostat -0.068 | vorinostat -0.234 | citarinostat -0.056 | silmitasertib 0.058 | [3] -0.032 | [6] -0.07 | entospletinib 0.045

SLC35B1 isoform 2 (UniProt P78383)
inactive: [1] -0.054 | [4] -0.029 | [5] -0.057 | entinostat 0.041 | citarinostat -0.052 | silmitasertib 0.261 | [3] 0.138 | [6] -0.327

SLC35F6 (UniProt Q8N357)
inactive: [1] -0.068 | [2] 0.045 | [4] -0.161 | [5] 0.005 | entinostat -0.185 | citarinostat -0.026 | silmitasertib 0.023 | [3] 0.074 | [6] 0.025

SLC41A3 isoform 9 (UniProt Q96GZ6)
inactive: [1] 0.11 | [2] 0.009 | [4] -0.046 | entinostat 0.244 | vorinostat -0.163 | citarinostat 0.017 | silmitasertib 0.188 | [3] 0.036 | [6] -0.157 | entospletinib -0.197

SLC29A3 (UniProt Q9BZD2)
inactive: [1] -0.098 | [2] -0.124 | [4] -0.304 | [5] 0.04 | entinostat -0.022 | citarinostat -0.123 | silmitasertib 0.047 | [3] 0.142 | [6] -0.033

SLC12A5 (UniProt Q9H2X9)
inactive: [1] -0.111 | [2] -0.077 | [4] -0.064 | [5] -0.043 | entinostat -0.05 | citarinostat 0.129 | silmitasertib 0.05 | [3] -0.032 | [6] -0.062

SLC25A30 (UniProt Q5SVS4)
inactive: [1] 0.055 | [2] 0.039 | [5] 0.027 | entinostat 0.043 | vorinostat -0.11 | citarinostat -0.01 | [6] -0.004 | entospletinib 0.146

SLC19A2 (UniProt O60779)
inactive: [1] 0.095 | [2] 0.006 | [5] -0.003 | entinostat 0.069 | citarinostat -0.02 | [3] -0.819 | [6] 0.177 | entospletinib -0.015

SLC22A18 (UniProt Q96BI1)
inactive: [1] -0.026 | [4] 0.021 | [5] -0.183 | entinostat -0.044 | vorinostat -0.073 | citarinostat -0.056 | silmitasertib -0.001 | [3] 0.02 | [6] -0.05 | entospletinib 0.066

Quoted from the entries so far (two entries):
SLC39A11 (UniProt Q8N1S5)
active: entospletinib -0.458
inactive: [1] 0 | [2] -0.027 | [4] -0.085 | [5] 0.024 | entinostat -0.016 | vorinostat -0.063 | citarinostat -0.059 | silmitasertib 0.078 | [6] -0.122

SLC4A7 isoform 7 (UniProt Q9Y6M7)
inactive: [1] 0.026 | [2] 0.052 | [4] 0.213 | [5] 0.115 | entinostat -0.011 | citarinostat -0.033 | silmitasertib -0.026 | [3] 0.026 | [6] -0.024 | entospletinib 0.038

Next records follow.

SLC35A1 (UniProt P78382)
inactive: [1] -0.05 | [2] -0.015 | [4] -0.069 | [5] 0.1 | entinostat -0.065 | citarinostat 0.047 | silmitasertib 0.021 | [3] 0.028 | [6] -0.106

SLC6A9 (UniProt P48067)
inactive: [1] 0.011 | [2] 0.096 | [4] 0.131 | [5] 0.034 | entinostat -0.013 | vorinostat -0.054 | citarinostat 0.002 | silmitasertib -0.01 | [6] -0.134 | entospletinib -0.043

SLC35A3 isoform 2 (UniProt Q9Y2D2)
inactive: [1] -0.07 | [2] -0.09 | [4] 0.041 | entinostat -0.011 | vorinostat -0.115 | citarinostat -0.075 | silmitasertib -0.082 | [3] -0.081 | [6] -0.049 | entospletinib 0.026

SLC2A4 (UniProt P14672)
inactive: [1] -0.005 | [2] 0.019 | [4] 0.05 | entinostat -0.094 | vorinostat 0.013 | citarinostat 0.078 | silmitasertib 0.051 | [6] -0.036 | entospletinib 0.02

SLC35E2B (UniProt P0CK96)
inactive: [1] -0.067 | [4] -0.074 | [5] 0.083 | entinostat 0.254 | silmitasertib 0.06

SLC12A2 (UniProt P55011)
inactive: [1] -0.018 | [2] 0.026 | [4] 0.047 | [5] 0.004 | entinostat -0.009 | vorinostat -0.001 | citarinostat 0.032 | silmitasertib -0.001 | [3] -0.032 | [6] -0.022 | entospletinib -0.04

SLC11A2 isoform 3 (UniProt P49281)
inactive: [1] -0.27 | [2] -0.103 | [4] -0.08 | [5] 0.049 | entinostat -0.049 | citarinostat 0.025 | silmitasertib 0.131 | [3] -0.047 | [6] -0.214 | entospletinib 0.091

SLC4A1 (UniProt P02730)
inactive: [1] -0.035 | [2] 0.149 | [4] -0.03 | [5] 0.032 | entinostat -0.015 | vorinostat 0 | citarinostat 0.017 | silmitasertib -0.002 | [3] 0.042 | [6] -0.087 | entospletinib 0.022

SLC25A23 isoform 3 (UniProt Q9BV35)
inactive: [1] -0.073 | [2] -0.15 | [4] -0.157 | [5] 0.053 | entinostat -0.046 | vorinostat -0.038 | citarinostat 0.083 | silmitasertib 0.191 | [6] 0.076 | entospletinib -0.042

SLC40A1 (UniProt Q9NP59)
inactive: [1] -0.094 | [2] 0.048 | [4] 0.044 | [5] -0.147 | entinostat -0.018 | vorinostat -0.088 | citarinostat 0.011 | silmitasertib 0.111 | [3] -0.099 | [6] -0.097 | entospletinib 0.091
